Data taken from patent publication US4605641A (Hoffmann-La Roche Inc., priority 1984, dated 1986).
HELM strings list residues between dots; [ac] is acetyl, [am] amide, other brackets name non-standard units.

Assay: general procedure: Boc solid-phase peptide synthesis; benzhydrylamine (BHA) resin, styrene-1% divinylbenzene, 200-400 mesh (Beckman Instruments); symmetrical anhydrides or HOBt active esters of Boc-amino acids
Conditions: whole synthesis

Which isolated yield does the source give for (Ser^11, Phe^13, Nle^17)VIP here?
Its isolated yield is 17.2%.

Which isolated yield does the source give for “PEPTIDE1{H.S.D.A.V.F.T.D.N.Y.T.K.L.K.K.Q.[Nle].A.V.K.K.Y.L.N.S.V.L.T.[am]}$$$$V2.0” here?
Its isolated yield is 10.5%.

Which isolated yield does the source give for “PEPTIDE1{H.S.D.A.V.F.T.D.N.Y.T.K.L.R.K.Q.[Nle].A.V.K.K.Y.L.N.S.I.L.N.[am]}$$$$V2.0” here?
Its isolated yield is 24%.

For “PEPTIDE1{H.S.D.A.V.F.T.D.N.Y.T.K.L.R.K.Q.[Nle].A.V.K.K.Y.L.N.S.V.L.T.[am]}$$$$V2.0”, which isolated yield is on record?
The isolated yield was 13.5%.

With “PEPTIDE1{H.S.D.A.V.F.T.D.N.Y.T.R.L.K.K.Q.[Nle].A.V.K.K.Y.L.N.S.I.L.N.[am]}$$$$V2.0” as the substance, how does the isolated yield read?
The isolated yield was 17%.

Which isolated yield does the source give for “PEPTIDE1{H.S.D.A.V.F.T.D.N.Y.T.R.L.R.K.Q.[Nle].A.V.K.K.Y.L.N.S.I.L.N.[am]}$$$$V2.0” here?
Its isolated yield is 22%.

With “PEPTIDE1{H.S.D.A.V.F.T.D.N.Y.T.R.L.R.K.Q.[Nle].A.V.K.K.Y.L.N.S.I.L.T.[am]}$$$$V2.0” as the substance, how does the isolated yield read?
The isolated yield was 18.4%.

Which isolated yield does the source give for “PEPTIDE1{H.S.D.A.V.F.T.D.N.Y.T.R.L.R.K.Q.[Nle].A.V.K.K.Y.L.N.S.V.L.T.[am]}$$$$V2.0” here?
Its isolated yield is 33.5%.

For “PEPTIDE1{H.S.D.A.V.F.T.D.N.Y.T.R.L.R.K.Q.[Nle].A.V.K.K.Y.L.N.T.I.L.N.[am]}$$$$V2.0”, which isolated yield is on record?
The isolated yield was 19.3%.

Which isolated yield does the source give for “PEPTIDE1{H.S.D.A.V.F.T.D.N.Y.T.R.L.R.K.Q.[Nle].A.V.K.K.Y.L.T.S.I.L.N.[am]}$$$$V2.0” here?
The isolated yield was 11%.

Which isolated yield does the source give for “PEPTIDE1{H.S.D.A.V.F.T.D.N.Y.T.[Orn].L.R.K.Q.[Nle].A.V.K.K.Y.L.N.S.I.L.N.[am]}$$$$V2.0” here?
The isolated yield was 14%.

Which isolated yield does the source give for “PEPTIDE1{[ac].H.S.D.A.V.F.T.D.N.Y.S.R.F.R.K.Q.[Nle].A.V.K.K.Y.L.N.S.I.L.N.[am]}$$$$V2.0” here?
Its isolated yield is 22.7%.

With “PEPTIDE1{[ac].H.S.D.A.V.F.T.D.N.Y.T.K.L.R.K.Q.[Nle].A.V.K.K.Y.L.N.S.I.L.N.[am]}$$$$V2.0” as the substance, how does the isolated yield read?
Its isolated yield is 11%.

For “PEPTIDE1{[ac].H.S.D.A.V.F.T.D.N.Y.T.R.L.R.K.Q.[Nle].A.V.K.K.Y.L.N.S.I.L.N.[am]}$$$$V2.0”, which isolated yield is on record?
The isolated yield was 26%.
